Results are given in words; binding and its absence hold for the method and conditions named. Binding seen in cells or lysates may run through a third protein. Some entries that bind do so weakly or less than the wild type. For some assays here: Tags and fused reporters may be left off the sequences shown.
Experiments:
[1] = target: AP2-μ2 (endogenous) (human (endogenous in SiHa, CaSki, NIKS, HaCaT)) (UniProt Q96CW1); assay: co-IP
[2] = target: C-terminally FLAG/HA-tagged HPV-16 E7 wild type (human papillomavirus type 16) (UniProt P03129); assay: co-IP
[3] = target: GST-16 E7 (HPV-16 E7 GST fusion protein) (human papillomavirus type 16) (UniProt P03129); assay: pull-down; only the target purified
[4] = target: AP2-β2-μ2 hemicomplex (H6β2-trunk + μ2-myc) (UniProt P63010); assay: pull-down; only the target purified
[5] = target: GST-phospho-16 E7 (human papillomavirus type 16) (UniProt P03129); assay: pull-down; only the target purified
[6] = target: T1, C-terminally FLAG/HA-tagged HPV-11 E7 (human papillomavirus type 11) (UniProt P04020); assay: co-IP
T1 sequence: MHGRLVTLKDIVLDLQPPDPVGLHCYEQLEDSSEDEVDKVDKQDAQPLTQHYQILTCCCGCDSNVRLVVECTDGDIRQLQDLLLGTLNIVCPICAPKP

Protein sequences, listed by entry. Tags and fused reporters are not part of them. Lines headed by an entry give the natural chain unless they say otherwise; changes in a name come on top.
UniProt Q96CW1: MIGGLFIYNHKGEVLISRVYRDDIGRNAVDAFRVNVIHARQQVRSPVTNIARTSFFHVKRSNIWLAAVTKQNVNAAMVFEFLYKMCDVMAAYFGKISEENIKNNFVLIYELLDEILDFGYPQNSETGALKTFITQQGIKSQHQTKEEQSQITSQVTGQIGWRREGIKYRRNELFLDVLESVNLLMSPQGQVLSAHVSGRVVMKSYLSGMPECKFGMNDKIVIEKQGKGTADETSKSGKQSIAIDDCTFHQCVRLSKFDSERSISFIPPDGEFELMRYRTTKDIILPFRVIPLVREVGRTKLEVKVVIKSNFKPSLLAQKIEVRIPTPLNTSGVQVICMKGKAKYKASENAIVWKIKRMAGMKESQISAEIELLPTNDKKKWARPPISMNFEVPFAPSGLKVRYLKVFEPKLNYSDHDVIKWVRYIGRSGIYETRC
UniProt P03129: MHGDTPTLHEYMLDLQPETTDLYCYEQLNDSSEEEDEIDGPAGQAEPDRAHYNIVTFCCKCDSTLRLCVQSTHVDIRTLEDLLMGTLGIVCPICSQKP
UniProt P63010: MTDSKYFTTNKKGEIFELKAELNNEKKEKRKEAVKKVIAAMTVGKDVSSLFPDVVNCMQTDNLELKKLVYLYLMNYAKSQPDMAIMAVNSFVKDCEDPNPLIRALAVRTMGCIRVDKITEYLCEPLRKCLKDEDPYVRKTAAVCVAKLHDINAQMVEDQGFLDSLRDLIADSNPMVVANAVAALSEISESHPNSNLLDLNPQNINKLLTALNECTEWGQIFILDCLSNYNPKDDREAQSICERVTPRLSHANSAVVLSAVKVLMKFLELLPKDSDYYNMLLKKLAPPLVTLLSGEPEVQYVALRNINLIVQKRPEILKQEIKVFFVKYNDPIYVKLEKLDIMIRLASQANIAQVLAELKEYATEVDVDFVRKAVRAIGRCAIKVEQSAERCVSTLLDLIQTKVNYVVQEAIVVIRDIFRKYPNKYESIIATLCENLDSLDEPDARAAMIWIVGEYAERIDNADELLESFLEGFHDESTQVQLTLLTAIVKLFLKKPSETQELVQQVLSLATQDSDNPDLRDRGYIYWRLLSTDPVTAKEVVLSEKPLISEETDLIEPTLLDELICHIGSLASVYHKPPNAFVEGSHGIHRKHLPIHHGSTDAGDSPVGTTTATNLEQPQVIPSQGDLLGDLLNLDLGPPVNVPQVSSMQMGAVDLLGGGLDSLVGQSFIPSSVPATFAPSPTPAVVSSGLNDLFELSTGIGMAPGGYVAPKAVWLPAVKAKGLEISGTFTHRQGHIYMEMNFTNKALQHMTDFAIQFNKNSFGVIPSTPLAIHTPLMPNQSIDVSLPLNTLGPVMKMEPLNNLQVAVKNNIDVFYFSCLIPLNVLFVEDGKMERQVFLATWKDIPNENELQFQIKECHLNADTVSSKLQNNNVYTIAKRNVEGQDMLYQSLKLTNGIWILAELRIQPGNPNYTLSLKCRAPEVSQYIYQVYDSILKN
UniProt P84092: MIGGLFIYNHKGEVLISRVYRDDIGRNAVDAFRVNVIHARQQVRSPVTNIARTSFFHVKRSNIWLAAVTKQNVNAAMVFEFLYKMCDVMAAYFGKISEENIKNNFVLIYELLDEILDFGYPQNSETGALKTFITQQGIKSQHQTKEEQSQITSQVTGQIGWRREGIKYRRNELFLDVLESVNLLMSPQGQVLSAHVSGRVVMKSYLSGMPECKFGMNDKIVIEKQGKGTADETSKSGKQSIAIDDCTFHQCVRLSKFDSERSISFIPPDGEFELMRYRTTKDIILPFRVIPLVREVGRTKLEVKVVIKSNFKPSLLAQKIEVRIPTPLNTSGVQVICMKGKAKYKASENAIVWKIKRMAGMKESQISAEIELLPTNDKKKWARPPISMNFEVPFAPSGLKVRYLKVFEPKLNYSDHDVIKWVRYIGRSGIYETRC

[7] = target: HA-tagged AP2-μ2 wild type (UniProt P84092); assay: co-IP
[8] = target: C-terminally FLAG-tagged HPV-16 E7 (human papillomavirus type 16) (UniProt P03129); assay: co-IP

HPV-16 E7 (endogenously expressed in SiHa and CaSki cells) (from UniProt P03129 1-98)
binding [1]: binds

HA-tagged AP2-μ2 K308E/K312E (from UniProt P84092 1-435)
binding [2]: binds

in vitro translated, [35S]-radiolabelled AP2-μ2 (μ2-HA-WT) (from UniProt P84092 1-435)
binding [3]: binds

C-terminally FLAG/HA-tagged HPV-16 E7 wild type (from UniProt P03129 1-98)
binding [4]: binds | binding [1]: binds

AP2-μ2 (endogenous) (from UniProt Q96CW1 1-435)
binding [3]: binds | binding [5]: binds

HA-tagged AP2-μ2 wild type (from UniProt P84092 1-435)
binding [2]: binds | binding [6]: binds

C-terminally FLAG-tagged HPV-16 E7 (from UniProt P03129 1-98)
binding [7]: binds

B1: C-terminally FLAG/HA-tagged HPV-11 E7 (protein, UniProt P04020 1-98)
chain: MHGRLVTLKDIVLDLQPPDPVGLHCYEQLEDSSEDEVDKVDKQDAQPLTQHYQILTCCCGCDSNVRLVVECTDGDIRQLQDLLLGTLNIVCPICAPKP
binding [1]: binds

B2: C-terminal FLAG-tagged HPV-11 E7 (protein, UniProt P04020 1-98)
chain: MHGRLVTLKDIVLDLQPPDPVGLHCYEQLEDSSEDEVDKVDKQDAQPLTQHYQILTCCCGCDSNVRLVVECTDGDIRQLQDLLLGTLNIVCPICAPKP
binding [7]: binds

B3: HA-tagged pRb (protein, UniProt P06400 1-928)
chain: MPPKTPRKTAATAAAAAAEPPAPPPPPPPEEDPEQDSGPEDLPLVRLEFEETEEPDFTALCQKLKIPDHVRERAWLTWEKVSSVDGVLGGYIQKKKELWGICIFIAAVDLDEMSFTFTELQKNIEISVHKFFNLLKEIDTSTKVDNAMSRLLKKYDVLFALFSKLERTCELIYLTQPSSSISTEINSALVLKVSWITFLLAKGEVLQMEDDLVISFQLMLCVLDYFIKLSPPMLLKEPYKTAVIPINGSPRTPRRGQNRSARIAKQLENDTRIIEVLCKEHECNIDEVKNVYFKNFIPFMNSLGLVTSNGLPEVENLSKRYEEIYLKNKDLDARLFLDHDKTLQTDSIDSFETQRTPRKSNLDEEVNVIPPHTPVRTVMNTIQQLMMILNSASDQPSENLISYFNNCTVNPKESILKRVKDIGYIFKEKFAKAVGQGCVEIGSQRYKLGVRLYYRVMESMLKSEEERLSIQNFSKLLNDNIFHMSLLACALEVVMATYSRSTSQNLDSGTDLSFPWILNVLNLKAFDFYKVIESFIKAEGNLTREMIKHLERCEHRIMESLAWLSDSPLFDLIKQSKDREGPTDHLESACPLNLPLQNNHTAADMYLSPVRSPKKKGSTTRVNSTANAETQATSAFQTQKPLKSTSLSLFYKKVYRLAYLRLNTLCERLLSEHPELEHIIWTLFQHTLQNEYELMRDRHLDQIMMCSMYGICKVKNIDLKFKIIVTAYKDLPHAVQETFKRVLIKEEEYDSIIVFYNSVFMQRLKTNILQYASTRPPTLSPIPHIPRSPYKFPSSPLRIPGGNIYISPLKSPYKISEGLPTPTKMTPRSRILVSIGESFGTSEKFQKINQMVCNSDRVLKRSAEGSNPPKPLKKLRFDIEGSDEADGSKHLPGESKFQQKLAEMTSTRTRMQKQKMNDSMDTSNKEEK
binding [2]: binds

B4: pRB (endogenous in HEK 293) (protein, UniProt P06400 1-928)
chain: MPPKTPRKTAATAAAAAAEPPAPPPPPPPEEDPEQDSGPEDLPLVRLEFEETEEPDFTALCQKLKIPDHVRERAWLTWEKVSSVDGVLGGYIQKKKELWGICIFIAAVDLDEMSFTFTELQKNIEISVHKFFNLLKEIDTSTKVDNAMSRLLKKYDVLFALFSKLERTCELIYLTQPSSSISTEINSALVLKVSWITFLLAKGEVLQMEDDLVISFQLMLCVLDYFIKLSPPMLLKEPYKTAVIPINGSPRTPRRGQNRSARIAKQLENDTRIIEVLCKEHECNIDEVKNVYFKNFIPFMNSLGLVTSNGLPEVENLSKRYEEIYLKNKDLDARLFLDHDKTLQTDSIDSFETQRTPRKSNLDEEVNVIPPHTPVRTVMNTIQQLMMILNSASDQPSENLISYFNNCTVNPKESILKRVKDIGYIFKEKFAKAVGQGCVEIGSQRYKLGVRLYYRVMESMLKSEEERLSIQNFSKLLNDNIFHMSLLACALEVVMATYSRSTSQNLDSGTDLSFPWILNVLNLKAFDFYKVIESFIKAEGNLTREMIKHLERCEHRIMESLAWLSDSPLFDLIKQSKDREGPTDHLESACPLNLPLQNNHTAADMYLSPVRSPKKKGSTTRVNSTANAETQATSAFQTQKPLKSTSLSLFYKKVYRLAYLRLNTLCERLLSEHPELEHIIWTLFQHTLQNEYELMRDRHLDQIMMCSMYGICKVKNIDLKFKIIVTAYKDLPHAVQETFKRVLIKEEEYDSIIVFYNSVFMQRLKTNILQYASTRPPTLSPIPHIPRSPYKFPSSPLRIPGGNIYISPLKSPYKISEGLPTPTKMTPRSRILVSIGESFGTSEKFQKINQMVCNSDRVLKRSAEGSNPPKPLKKLRFDIEGSDEADGSKHLPGESKFQQKLAEMTSTRTRMQKQKMNDSMDTSNKEEK
binding [8]: binds

Reference: paper PMC9765456
